US20040038855A1 (priority 1999, published 2004)
Where two headings read alike, the source gives them in different places. At least one structure is not confirmed: it was looked up by name or label, or the drawing left a doubt.

By UniProt entry, the sequences of proteins in these tests, tags left out. Where a name states a change or a piece, a line headed by the entry shows the natural chain unless it says otherwise.
UniProt Q99705: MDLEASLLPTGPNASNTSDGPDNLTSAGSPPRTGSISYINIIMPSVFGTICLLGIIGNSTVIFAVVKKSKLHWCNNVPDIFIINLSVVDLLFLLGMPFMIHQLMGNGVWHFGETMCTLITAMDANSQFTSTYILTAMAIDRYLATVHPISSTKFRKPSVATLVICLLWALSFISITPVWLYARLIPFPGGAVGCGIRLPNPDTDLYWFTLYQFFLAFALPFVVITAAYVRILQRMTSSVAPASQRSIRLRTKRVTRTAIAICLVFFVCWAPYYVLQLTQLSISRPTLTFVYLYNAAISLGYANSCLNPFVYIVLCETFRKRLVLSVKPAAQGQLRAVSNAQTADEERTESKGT

Target: human MCH1 receptor (Homo sapiens, UniProt Q99705)
Experiment: Intracellular calcium response to MCH in COS-7 cells transfected with MCH1 (fluo-3, FLIPR): antagonist potency
Type: cell-based
Set-up: expressed in transfected cells; host or cells: COS-7
Source text: MCH1 antagonist compounds were identified by their ability to inhibit the MCH-elicited response. […]. From the IC50 values, the antagonist potency (Kb)was derived using the Cheng-Prussof correction (Lazareno and Birdsall, 1993). […]

Measured: Kb

COC(=O)C1=C(C)NC(=O)N(C(=O)NCCCN2CCC3(CC2)OCc2ccccc23)C1c1ccc(F)c(F)c1 (stereo not drawn) [Example 20, 4-(3,4-DIFLUORPHENYL)-6-METHYL-2-OXO-3-{[3-(4-SPIRO[ISOBENZOFURAN-1(3H),4′-PIPERIDINE]PROPYL}-1,2,3,4-TETRAHYDROPYRIMIDINE-5-CARBOXYLIC ACID METHYL ESTER]
5 nM: Table 3a, read-out: hMCH1 Kb | Table 3b, read-out: hMCH1 Kb | inhibition of the response to 500 nM MCH, IC50 corrected by Cheng-Prussof, read-out: Kb (nM) hMCH1
